Data as given in PubChem BioAssay AID504791 (Drosophila RNAi Screening Center, 2011)
The screen tested about 23,000 reagents; this is an unselected part of those with a known target gene and a result. In the full data, 199 (0.86%) are marked active. 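Plate-scaled ratios behind the calls are not deposited; printed light signals are raw; many rows marked increased or decreased are still called inactive.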 A plus sign joins genes that one reagent is predicted to hit. No sequences are given here. Not given: the direction of the score.

Test: 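Genes of the fly required for silencing by miRNA, siRNA or endo-siRNA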 (primary screen)
Cells: Drosophila S2-derived reporter cells
Reagent: long dsRNA against Drosophila genes, about 150-250 ng dsRNA per well (siRNA assay); about 80-120 ng (miRNA assay)
Time to read-out: about 5 days (siRNA assay); about 4 days (miRNA assay)
Conditions: copper sulfate induction of reporters: 25 µM (siRNA assay); 200 mM stated (miRNA assay), 1-2 days before reading
Detection: 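Dual luciferase assay: Renilla to firefly signal ratio in each well, scaled to the mean ratio of its plate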
Rule for the call: 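a well was a first-pass pick when its plate-scaled ratio rose above 1.5 (siRNA assay) or 1.6 (miRNA assay), or dropped below 0.6; a gene counted only if two separate dsRNAs agreed on retest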

Knock-down of CG43127 (GeneID 8673982) [SID104188831] came out at: stable assay Renilla, run 1 (luminescence) = 4811; stable assay firefly, run 1 (luminescence) = 3.78e5; inactive.
After knock-down of Gale (GeneID 38076) [SID104188026] the results were stable assay Renilla, run 1 (luminescence) = 10338; stable assay firefly, run 1 (luminescence) = 4.81e5; inactive.
Depletion of Tep2 (GeneID 34044) [SID104182471] came out at: stable assay Renilla, run 1 (luminescence) = 9429; stable assay firefly, run 1 (luminescence) = 5.70e5; inactive.
Silencing of Tep2 (GeneID 34044) [SID104183243] resulted in: stable assay Renilla, run 1 (luminescence) = 11035; stable assay firefly, run 1 (luminescence) = 5.50e5; inactive.
Depletion of CRIF (GeneID 40395) [SID104191603] resulted in: stable assay Renilla, run 1 (luminescence) = 8305; stable assay firefly, run 1 (luminescence) = 5.45e5; inactive.
For dachs (GeneID 34179) [SID104181864], the values are miRNA reporter change reporter ratio lowered past the hit cutoff; stable assay Renilla, run 1 (luminescence) = 6.31e5; stable assay firefly, run 1 (luminescence) = 4.74e5; inactive.
Against dachs (GeneID 34179) [SID104181983], the entry reads stable assay Renilla, run 1 (luminescence) = 7188; stable assay firefly, run 1 (luminescence) = 4.53e5; inactive.
CG13578 (GeneID 37891) [SID104184006] scored stable assay Renilla, run 1 (luminescence) = 6344; stable assay firefly, run 1 (luminescence) = 3.94e5; inactive.

An excerpt from above, limited to “stable assay Renilla, run 1 (luminescence)”.
CG43127 (GeneID 8673982) [SID104188831] = 4811
Gale (GeneID 38076) [SID104188026] = 10338

The listing continues:
With knock-down of CG14132 (GeneID 50290) [SID104189928], the record shows stable assay Renilla, run 1 (luminescence) = 6418; stable assay firefly, run 1 (luminescence) = 5.29e5; inactive.
Depletion of spartin (GeneID 40582) [SID104191979] resulted in: stable assay Renilla, run 1 (luminescence) = 6950; stable assay firefly, run 1 (luminescence) = 4.71e5; inactive.
Knock-down of CG32536 + CG32537 [SID104199866] gave: stable assay Renilla, run 1 (luminescence) = 4972; stable assay firefly, run 1 (luminescence) = 4.24e5; inactive.
After knock-down of CG1532 (GeneID 33076) [SID104200308], the screen gave stable assay Renilla, run 1 (luminescence) = 8477; stable assay firefly, run 1 (luminescence) = 4.07e5; inactive.
